Measurements reported in PubChem BioAssay AID1259405 (NCATS, 2018).
Aim: 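Knock-downs that lift recombinant protein yield in hamster ovary cells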 (primary screen). Cells: Chinese hamster CHO-K1 ovary cells with stable secreted eGFP expression. Reagents: single siRNA against mouse genes, 0.8 pmol siRNA per well (2 µl of 400 nM stock). Duration: 3 days. Read-out: 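Percent of the per-plate non-targeting control median for intracellular GFP per well by laser scanning cytometry and for cell viability by ATP luminescence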. Scale: GFP, % of control: higher = more GFP per well, higher productivity; viability (ATP), % of control: higher = more viable cells (more ATP). Rule for the call: 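Called active when intracellular GFP, relative to negative control, is at or above 120%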.
The whole screen tested about 50,000 reagents; this is a random part of them. About 4,000 of all reagents (8%) count as active. 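Mouse siRNA library applied to hamster cells; one well for each siRNA.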 Entries without a mark were called inactive. Reagents against one gene are numbered here.

| gene knocked down | reagent | GFP, % of control | viability (ATP), % of control |
| --- | --- | --- | --- |
| Ackr5 | 1 | 74.9 | 90.8 |
| Ackr5 | 2 | 76.8 | 90.3 |
| Ackr5 | 3 | 58.2 | 63.8 |
| Tom1l2 | 1 | 78.5 | 76.2 |
| Tom1l2 | 2 | 63.4 | 76.3 |
| Tom1l2 | 3 | 63.6 | 103 |
| Mrpl17 | 1 | 71.1 | 53.1 |
| Mrpl17 | 2 | 73.6 | 58.8 |
| Mrpl17 | 3 | 83.7 | 80.5 |
| AI606181 | 1 | 64.5 | 60.8 |
| AI606181 | 2 | 98.1 | 87.5 |
| AI606181 | 3 | 98.2 | 84.5 |
| Sod2 | 1 | 63.7 | 41 |
| Sod2 | 2 | 104 | 51.9 |
| Sod2 | 3 | 40 | 51.9 |
| Or11h7 | 1 | 125 (active) | 76.6 |
| Or11h7 | 2 | 81.9 | 83.1 |
| Or11h7 | 3 | 66.2 | 66.2 |
| Csf3 | 1 | 44.5 | 72.8 |
| Csf3 | 2 | 16.8 | 31.6 |
| Csf3 | 3 | 87.2 | 64.2 |
| Socs5 | 1 | 98.1 | 136 |
| Socs5 | 2 | 86.3 | 88.6 |
| Ttc24 | 1 | 55.3 | 39.4 |
| Ttc24 | 2 | 46 | 52.8 |
| Ttc24 | 3 | 58.2 | 62.4 |
| Piwil4 | 1 | 34 | 23 |
| Piwil4 | 2 | 39 | 51.9 |
| Piwil4 | 3 | 49 | 55.1 |
| D630039A03Rik | 1 | 80 | 106 |
| D630039A03Rik | 2 | 99.8 | 85.9 |
| D630039A03Rik | 3 | 114 | 104 |
| Dusp7 | 1 | 78.3 | 72.8 |
| Dusp7 | 2 | 65.1 | 48.6 |
| Ncapg2 | 1 | 37.9 | 23.9 |
| Ncapg2 | 2 | 99.8 | 102 |
| Ncapg2 | 3 | 140 (active) | 112 |
| Tsr2 | 1 | 74 | 69 |
| Tsr2 | 2 | 133 (active) | 82.2 |
| Tsr2 | 3 | 96.9 | 62.5 |
| Ank | 1 | 118 | 122 |
| Ank | 2 | 67.2 | 75.8 |
| Ank | 3 | 86.5 | 105 |
| Snupn | 1 | 115 | 80.7 |
| Snupn | 2 | 20.2 | 45.5 |
| Rbm6 | 1 | 124 (active) | 140 |
| Rbm6 | 2 | 65.3 | 85.7 |
| Pnma1 | 1 | 78.5 | 143 |
| Pnma1 | 2 | 81.6 | 102 |
| Ugt1a2 | 1 | 101 | 85.6 |
| Ugt1a2 | 2 | 77.5 | 98.9 |
| Ugt1a2 | 3 | 65.2 | 56.8 |
| Krtap19-4 | 1 | 48.8 | 62.2 |
| Krtap19-4 | 2 | 14.2 | 26.5 |
| Krtap19-4 | 3 | 63.9 | 47.2 |
| Tex46 | 1 | 54.6 | 59.1 |
| Tex46 | 2 | 73.6 | 33.2 |
| Tex46 | 3 | 56.1 | 55.3 |

An excerpt from above, reduced to “GFP, % of control”:
Pnma1 #1: 78.5
Pnma1 #2: 81.6
Ugt1a2 #1: 101
Ugt1a2 #2: 77.5
Ugt1a2 #3: 65.2
Krtap19-4 #1: 48.8
Krtap19-4 #2: 14.2
Krtap19-4 #3: 63.9
